Patent US20210317161 (published 2021)

Assay: general procedure: hybrid (solid and solution phase) peptide synthesis; 2-Cl-Trt resin; TBTU/HOBt/DIPEA (cyclisation)
Settings: whole synthesis, Phenomenex 250x4 mm C-18, scale of the general procedure 30 gm resin; for crude HPLC purity: di-aspartate (via trifluoroacetate and free base)

Row | Substance | crude HPLC purity [%] | final HPLC purity (di-aspartate) [%]
1 | H-Phe-Pro(4-OCONH—(CH2)2—NH-Boc)-Phg-D-Trp(Boc)-Lys(Boc)-Tyr (Bzl)-OH | 88.3 | 
2 | Pasireotide | 74 | >99.5
